Laboratory results: patent US10426777B2, “Methods used to treat cancer” (THE TRANSLATIONAL GENOMICS RESEARCH INSTITUTE, priority 2009, dated 2019)
For part of these data: At least one read-out could not be matched to a standard name with certainty. For part of these data: At least one compound was matched to its structure with a doubt left.

Experiments:
U118 cells = experiment: Temozolomide sensitivity of U118 cells, Alamar Blue viability; type: cell-based, Human; conditions: U118 with reduced TROY (RNAi) relative to negative RNAi control; 250 μM TMZ, 48 h
T98G glioma cells = experiment: Temozolomide induced apoptosis, annexin V flow cytometry; type: cell-based, Human; conditions: T98G overexpressing TROY relative to control transfected T98G; 250 μM TMZ, 48 h
[1] = clinical trials, Reference 39; cited from earlier work

SMILES | sensitivity to cell death following temozolomide treatment (U118 cells) | resistance to temozolomide induced apoptosis (T98G glioma cells) | blood brain barrier permeability [1]
Cn1nnc2c(C(N)=O)ncn2c1=O [temozolomide] | significantly more sensitive | significantly more resistant | –
CCCn1cnc2c1c(=O)n(CCCCC(C)=O)c(=O)n2C [PPF, 3-methyl-1-(5-oxohexyl)-7-propyl-3,7-dihydro-1H-purine-2,6-dione] | – | – | blood brain barrier permeability
